Some of these results come from one statement about several compounds together. Where a SMILES comes first, the peptide text is derived from it. Bridges are numbered along the chain shown (N, C = ends).
Columns and labels:
[1] = tested on: wide range of pathogens; assay: Average MIC over a wide range of pathogens; type: cell-based
[2] = tested on: human red blood cells (hRBC); assay: Hemolysis of human red blood cells at 100 μg/ml peptide; settings: at a concentration of 100 μg/ml; typical values
Description: Hemolysis of red blood cells is often employed for assessment of toxicity of related compounds such as protegrin or tachyplesin. Values are given as %-lysis of red blood cells observed at a concentration of 100 μg/ml.
The peptides were tested for their hemolytic activity against human red blood cells (hRBC). Fresh hRBC were washed three times with phosphate buffered saline (PBS) by centrifugation for 10 min at 2000×g. Peptides at a concentration of 100 μg/ml were incubated with 20% v/v hRBC for 1 hour at 37° C. The final erythrocyte concentration was appr. 0.9×10^9/ml. A value of 0% resp. 100% cell lysis was determined by incubation of the hRBC in the presence of PBS alone and resp. 0.1% Triton X-100 in H2O. The samples were centrifuged and the supernatant was 20 fold diluted in PBS buffer and the optical density (OD) of the sample at […] was measured. […] Percent hemolysis was calculated as follows: (OD540peptide/OD540H2O)×100%.

| SMILES | average MIC-values [1] [µg/mL] | %-lysis of red blood cells [2] |
| --- | --- | --- |
| CC(C)C[C@H](NC(=O)[C@H](CCCNC(=N)N)NC(=O)CNC(=O)CNC(=O)[C@@H](N)CCCNC(=N)N)C(=O)N[C@H]1CSSC[C@@H](C(=O)N[C@H](C(=O)NCC(=O)N[C@@H](CCCNC(=N)N)C(N)=O)C(C)C)NC(=O)[C@H](C(C)C)NC(=O)[C@@H]2CSSC[C@H](NC(=O)[C@H](Cc3ccc(O)cc3)NC1=O)C(=O)N[C@@H](CCCNC(=N)N)C(=O)N[C@@H](CCCNC(=N)N)C(=O)N[C@@H](CCCNC(=N)N)C(=O)N[C@@H](Cc1ccccc1)C(=O)N2 [protegrin] | 1 to 5 |  |
| CC[C@H](C)[C@@H]1NC(=O)CNC(=O)[C@H](CCCNC(=N)N)NC(=O)[C@H](Cc2ccc(O)cc2)NC(=O)[C@@H]2CSSC[C@H](NC1=O)C(=O)N[C@@H](Cc1ccc(O)cc1)C(=O)N[C@@H](CCCNC(=N)N)C(=O)N[C@@H](CCCNC(=N)N)C(=O)N[C@H](C(=O)N[C@@H](CCCNC(=N)N)C(N)=O)CSSC[C@H](NC(=O)[C@H](Cc1c[nH]c3ccccc13)NC(=O)[C@@H](N)CCCCN)C(=O)N[C@@H](Cc1ccccc1)C(=O)N[C@@H](CCCNC(=N)N)C(=O)N[C@@H](C(C)C)C(=O)N2 [tachyplesin, reference compound] (H-KWCFRVCYRGICYRRCR-NH2; disulfide 3-16, 7-12) |  | 30–40% |

— patent US7253146B2, “Template-fixed peptidomimetics with antimicrobial activity” (Polyphor Ltd, priority 2001, dated 2007)
